The comparison behind a weaker result is the experiment's own reference, which may not be listed here. Construct, isoform or probe ends are uncertain for at least one entry. For part of these data: At least one verdict was read from the data and is not stated in words by the source.
Key:
[1] = test system: RPA (yeast) (Saccharomyces cerevisiae); test: competition (smFRET strand transfer); conditions: 10 mM Tris-HCl pH 7.5, 100 or 300 mM NaCl, 10% glycerol, 10 mM Trolox, 0.5% glucose, glucose oxidase/catalase, ~23 C, recombinant protein, single-stranded DNA
SSB [2] = molecular target: SSB (UniProt P0AGE0); test: competition (smFRET strand transfer); conditions: 300 mM NaCl, 10 mM Tris-HCl pH 7.5, 100 or 300 mM NaCl, 10% glycerol, 10 mM Trolox, 0.5% glucose, glucose oxidase/catalase, ~23 C, recombinant protein, single-stranded DNA
[3] = test system: RPA (yeast) (Saccharomyces cerevisiae); test: competition with a labelled probe; conditions: up to 10 uM U50 does not displace RPA from DNA (dT40), 100 mM NaCl; 10 mM Tris-HCl pH 7.5, 100 or 300 mM NaCl, 10% glycerol, 10 mM Trolox, 0.5% glucose, glucose oxidase/catalase, ~23 C; recombinant protein
SSB [4] = molecular target: SSB (UniProt P0AGE0); test: competition with a labelled probe; conditions: up to 10 uM U50 does not displace SSB from dT70, 100 mM NaCl; 10 mM Tris-HCl pH 7.5, 100 or 300 mM NaCl, 10% glycerol, 10 mM Trolox, 0.5% glucose, glucose oxidase/catalase, ~23 C; recombinant protein

Chains of the proteins cited; added tags and fusions are not shown. Chains listed by the source or under a name are the forms on record and can include a tag or linker. Residues count along the entry.
UniProt P0AGE0, 2-178: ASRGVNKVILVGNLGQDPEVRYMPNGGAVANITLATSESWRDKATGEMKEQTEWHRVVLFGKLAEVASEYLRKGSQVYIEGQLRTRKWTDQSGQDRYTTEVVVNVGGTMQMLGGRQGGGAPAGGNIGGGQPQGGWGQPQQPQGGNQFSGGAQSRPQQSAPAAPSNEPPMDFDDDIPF
RPA (yeast) (Saccharomyces cerevisiae), one chain, as listed by the source, chain 1 of 3: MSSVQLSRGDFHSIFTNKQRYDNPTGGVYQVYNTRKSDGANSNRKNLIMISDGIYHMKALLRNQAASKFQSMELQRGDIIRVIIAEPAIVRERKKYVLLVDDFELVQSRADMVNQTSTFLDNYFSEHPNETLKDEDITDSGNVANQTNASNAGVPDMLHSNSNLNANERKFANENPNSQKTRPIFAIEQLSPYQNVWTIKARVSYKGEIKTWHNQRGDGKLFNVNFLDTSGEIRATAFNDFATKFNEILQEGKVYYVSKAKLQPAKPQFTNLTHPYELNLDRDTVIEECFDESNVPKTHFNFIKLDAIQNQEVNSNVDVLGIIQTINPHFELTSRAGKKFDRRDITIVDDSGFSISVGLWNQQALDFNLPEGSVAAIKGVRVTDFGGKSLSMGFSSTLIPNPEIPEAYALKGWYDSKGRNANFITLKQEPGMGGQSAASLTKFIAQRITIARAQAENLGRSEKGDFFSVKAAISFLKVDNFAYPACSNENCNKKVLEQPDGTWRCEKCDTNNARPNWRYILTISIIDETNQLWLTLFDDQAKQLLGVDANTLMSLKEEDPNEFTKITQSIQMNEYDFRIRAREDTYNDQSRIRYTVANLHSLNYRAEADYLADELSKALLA
RPA (yeast) (Saccharomyces cerevisiae), one chain, as listed by the source, chain 2 of 3: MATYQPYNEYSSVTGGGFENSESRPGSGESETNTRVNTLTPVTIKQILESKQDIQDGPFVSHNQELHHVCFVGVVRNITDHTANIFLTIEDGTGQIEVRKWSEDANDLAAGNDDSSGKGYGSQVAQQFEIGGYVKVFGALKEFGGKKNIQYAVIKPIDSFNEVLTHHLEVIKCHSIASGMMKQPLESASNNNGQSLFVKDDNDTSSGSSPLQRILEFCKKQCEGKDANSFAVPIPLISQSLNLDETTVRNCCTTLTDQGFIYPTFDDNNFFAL
RPA (yeast) (Saccharomyces cerevisiae), one chain, as listed by the source, chain 3 of 3: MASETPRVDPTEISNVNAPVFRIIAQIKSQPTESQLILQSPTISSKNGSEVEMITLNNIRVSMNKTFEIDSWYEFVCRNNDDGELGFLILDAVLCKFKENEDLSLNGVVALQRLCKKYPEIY

**Q.** Which results are given for “TAAATTAATACGACTCACTATAGGGAGACCACAAGGTGAGGAGTAGGAATCCGTATCTATCAGCTCCAGG [Comp_mixed seq]”?
**A.** binding result ([1]; from mixed-sequence tethered DNA, 100 mM NaCl): binds; binding result (SSB [2]; from mixed-sequence tethered DNA): binds

**Q.** Does TTTTTTTTTT [dT10] bind ([1]; 100 nM competitor from dT40-RPA, 100 mM NaCl)?
**A.** binds more weakly

**Q.** Does TTTTTTTTTTTTTTTTTTTT [dT20] bind ([1]; 100 nM competitor from dT40-RPA, rate jumps between dT20 and dT30)?
**A.** binds more weakly

**Q.** Does “TTTTTTTTTTTTTTTTTTTTTTTTTTTTTTTTTTTTTTTT [dT40]” bind (SSB [2]; 100 nM competitor from dT70-SSB, slower than longer ssDNA)?
**A.** binds more weakly

**Q.** Does “TTTTTTTTTTTTTTTTTTTTTTTTTTTTTTTTTTTTTTTTTTTTTTTTTTTTTTT [dT55]” bind (SSB [2]; 100 nM competitor from dT70-SSB, rate jumps between dT55 and dT60)?
**A.** binds more weakly

**Q.** Does “TTTTTTTTTTTTTTTTTTTTTTTTTTTTTTTTTTTTTTTTTTTTTTTTTTTTTTTTTTTTTTTTTTTTTT [dT70]” bind (SSB [2]; 100 nM competitor from dT70-SSB)?
**A.** binds

**Q.** Does “UUUUUUUUUUUUUUUUUUUUUUUUUUUUUUUUUUUUUUUUUUUUUUUUUU [U50]” bind [3]?
**A.** binds more weakly

**Q.** Does “UUUUUUUUUUUUUUUUUUUUUUUUUUUUUUUUUUUUUUUUUUUUUUUUUU [U50]” bind (SSB [4])?
**A.** binds more weakly

— article PMC12214019
